Consider 1 molecule from paper PMC7051184, “C9orf72 arginine-rich dipeptide repeat proteins disrupt karyopherin-mediated nuclear import” (eLife, 2020).

A short description of the data set: Mass spectrometry of R-DPR-induced aggregates. Details: species or system human.

The structures appear in SMILES notation. Where a SMILES comes first, the peptide text is derived from it.

`N=C(N)NCCC[C@H](NC(=O)[C@@H]1CCCN1C(=O)[C@H](CCCNC(=N)N)NC(=O)[C@@H]1CCCN1C(=O)[C@H](CCCNC(=N)N)NC(=O)[C@@H]1CCCN1C(=O)[C@H](CCCNC(=N)N)NC(=O)[C@@H]1CCCN1C(=O)[C@H](CCCNC(=N)N)NC(=O)[C@@H]1CCCN1C(=O)[C@H](CCCNC(=N)N)NC(=O)[C@@H]1CCCN1C(=O)[C@H](CCCNC(=N)N)NC(=O)[C@@H]1CCCN1C(=O)[C@H](CCCNC(=N)N)NC(=O)[C@@H]1CCCN1C(=O)[C@H](CCCNC(=N)N)NC(=O)[C@@H]1CCCN1C(=O)[C@H](CCCNC(=N)N)NC(=O)[C@@H]1CCCN1)C(=O)O` [PR10] (H-PRPRPRPRPRPRPRPRPRPR-OH; N-terminus and C-terminus assumed): the “MS hits unique to the DPR” value worked out at 11%. Further, the “Number of proteins identified in aggregates by mass spectrometry” value (in each of two replicates, 50 µM GR10 or 25 µM PR10 in 5 mg/ml HEK lysate, 60 min, 37°C) was determined as 758.
